# ± gives the standard deviation of the averaged measurements. This is a selection; strong and weak results do not stand in their true shares. Most values lie at the level of the controls, where differences are scatter.
# Chains of the proteins cited; added tags and fusions are not shown. Lines headed by an entry give the natural chain unless they say otherwise; changes in a name come on top.
# UniProt Q8WYH8, whole entry: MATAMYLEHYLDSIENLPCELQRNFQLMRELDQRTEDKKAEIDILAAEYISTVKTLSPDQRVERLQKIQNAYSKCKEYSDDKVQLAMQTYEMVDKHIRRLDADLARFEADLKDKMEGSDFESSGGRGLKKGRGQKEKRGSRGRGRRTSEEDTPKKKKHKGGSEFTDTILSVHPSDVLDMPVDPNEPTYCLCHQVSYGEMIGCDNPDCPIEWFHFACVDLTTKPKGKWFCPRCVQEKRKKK
# UniProt Q9Y485, whole entry: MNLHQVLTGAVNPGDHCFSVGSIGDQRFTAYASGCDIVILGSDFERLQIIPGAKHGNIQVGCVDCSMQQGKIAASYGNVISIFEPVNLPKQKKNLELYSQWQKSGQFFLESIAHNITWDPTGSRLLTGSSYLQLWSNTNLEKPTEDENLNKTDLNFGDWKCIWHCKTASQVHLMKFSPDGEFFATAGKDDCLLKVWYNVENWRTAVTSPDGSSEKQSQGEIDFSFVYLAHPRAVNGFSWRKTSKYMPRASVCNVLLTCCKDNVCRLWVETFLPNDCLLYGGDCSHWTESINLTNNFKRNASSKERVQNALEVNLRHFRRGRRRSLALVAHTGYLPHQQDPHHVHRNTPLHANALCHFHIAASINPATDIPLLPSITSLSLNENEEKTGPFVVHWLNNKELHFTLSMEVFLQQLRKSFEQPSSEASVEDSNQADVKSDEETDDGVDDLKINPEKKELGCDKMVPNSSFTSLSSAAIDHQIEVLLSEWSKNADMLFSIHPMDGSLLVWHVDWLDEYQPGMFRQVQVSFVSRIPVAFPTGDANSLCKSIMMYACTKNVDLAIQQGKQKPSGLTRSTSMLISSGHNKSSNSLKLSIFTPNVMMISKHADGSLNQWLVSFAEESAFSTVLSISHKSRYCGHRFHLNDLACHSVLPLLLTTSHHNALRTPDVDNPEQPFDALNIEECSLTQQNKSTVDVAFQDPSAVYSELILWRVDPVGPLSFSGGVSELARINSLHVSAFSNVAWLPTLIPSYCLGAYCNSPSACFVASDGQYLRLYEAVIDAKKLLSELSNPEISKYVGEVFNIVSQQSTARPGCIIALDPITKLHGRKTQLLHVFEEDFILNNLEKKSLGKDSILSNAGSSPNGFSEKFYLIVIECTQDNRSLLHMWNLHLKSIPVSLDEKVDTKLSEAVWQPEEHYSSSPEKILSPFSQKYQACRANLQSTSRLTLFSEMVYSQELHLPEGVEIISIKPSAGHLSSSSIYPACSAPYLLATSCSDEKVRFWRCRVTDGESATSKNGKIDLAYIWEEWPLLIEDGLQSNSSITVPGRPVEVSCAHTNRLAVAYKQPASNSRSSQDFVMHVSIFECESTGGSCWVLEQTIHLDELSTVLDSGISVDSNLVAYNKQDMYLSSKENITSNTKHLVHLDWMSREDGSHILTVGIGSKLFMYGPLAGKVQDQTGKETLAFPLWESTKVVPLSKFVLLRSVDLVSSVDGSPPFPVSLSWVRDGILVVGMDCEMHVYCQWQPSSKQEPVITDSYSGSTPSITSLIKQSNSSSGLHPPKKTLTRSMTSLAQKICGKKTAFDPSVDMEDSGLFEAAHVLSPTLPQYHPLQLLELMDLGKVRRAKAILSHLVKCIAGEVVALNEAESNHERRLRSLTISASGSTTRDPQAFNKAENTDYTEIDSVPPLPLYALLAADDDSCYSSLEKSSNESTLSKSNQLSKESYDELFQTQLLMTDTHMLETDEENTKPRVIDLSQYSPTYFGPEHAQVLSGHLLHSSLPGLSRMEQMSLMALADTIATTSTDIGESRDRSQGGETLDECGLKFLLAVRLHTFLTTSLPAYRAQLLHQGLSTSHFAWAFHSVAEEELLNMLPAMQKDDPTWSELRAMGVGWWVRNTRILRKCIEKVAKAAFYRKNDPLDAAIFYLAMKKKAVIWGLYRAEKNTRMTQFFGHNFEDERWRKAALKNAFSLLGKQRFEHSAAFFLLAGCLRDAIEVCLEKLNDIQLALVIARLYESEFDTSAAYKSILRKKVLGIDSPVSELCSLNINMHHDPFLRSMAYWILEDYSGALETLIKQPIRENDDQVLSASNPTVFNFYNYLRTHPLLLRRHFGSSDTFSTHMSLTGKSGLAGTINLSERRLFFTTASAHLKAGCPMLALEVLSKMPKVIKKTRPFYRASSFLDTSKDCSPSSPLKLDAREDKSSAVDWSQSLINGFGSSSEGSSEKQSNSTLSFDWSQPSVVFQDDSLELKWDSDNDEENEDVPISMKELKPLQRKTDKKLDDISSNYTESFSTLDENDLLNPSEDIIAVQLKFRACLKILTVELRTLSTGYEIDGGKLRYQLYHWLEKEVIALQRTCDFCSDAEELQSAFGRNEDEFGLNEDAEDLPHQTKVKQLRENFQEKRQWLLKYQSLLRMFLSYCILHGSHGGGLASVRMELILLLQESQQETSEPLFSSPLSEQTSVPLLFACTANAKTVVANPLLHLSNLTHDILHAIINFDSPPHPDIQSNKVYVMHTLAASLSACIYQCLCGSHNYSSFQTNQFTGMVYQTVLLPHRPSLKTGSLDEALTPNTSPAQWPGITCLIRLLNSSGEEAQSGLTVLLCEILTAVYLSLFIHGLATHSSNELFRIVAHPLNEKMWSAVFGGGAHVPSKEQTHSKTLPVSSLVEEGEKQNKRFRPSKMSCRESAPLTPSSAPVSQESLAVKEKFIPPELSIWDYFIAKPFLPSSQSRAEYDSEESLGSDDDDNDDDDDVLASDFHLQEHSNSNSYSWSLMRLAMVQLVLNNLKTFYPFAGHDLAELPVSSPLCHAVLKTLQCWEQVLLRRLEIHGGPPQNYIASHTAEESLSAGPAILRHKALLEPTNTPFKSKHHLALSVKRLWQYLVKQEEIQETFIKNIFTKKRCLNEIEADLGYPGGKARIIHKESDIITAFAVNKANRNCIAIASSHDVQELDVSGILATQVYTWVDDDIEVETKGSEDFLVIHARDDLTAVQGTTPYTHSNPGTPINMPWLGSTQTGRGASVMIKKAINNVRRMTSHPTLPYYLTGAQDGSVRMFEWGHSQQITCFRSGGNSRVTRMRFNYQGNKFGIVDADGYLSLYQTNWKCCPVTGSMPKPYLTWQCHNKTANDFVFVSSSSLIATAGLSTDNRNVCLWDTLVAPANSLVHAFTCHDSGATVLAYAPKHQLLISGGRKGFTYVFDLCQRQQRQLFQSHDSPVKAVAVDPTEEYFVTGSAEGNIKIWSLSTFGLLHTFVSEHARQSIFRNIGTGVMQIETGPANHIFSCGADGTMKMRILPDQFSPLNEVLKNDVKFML
# UniProt O95208: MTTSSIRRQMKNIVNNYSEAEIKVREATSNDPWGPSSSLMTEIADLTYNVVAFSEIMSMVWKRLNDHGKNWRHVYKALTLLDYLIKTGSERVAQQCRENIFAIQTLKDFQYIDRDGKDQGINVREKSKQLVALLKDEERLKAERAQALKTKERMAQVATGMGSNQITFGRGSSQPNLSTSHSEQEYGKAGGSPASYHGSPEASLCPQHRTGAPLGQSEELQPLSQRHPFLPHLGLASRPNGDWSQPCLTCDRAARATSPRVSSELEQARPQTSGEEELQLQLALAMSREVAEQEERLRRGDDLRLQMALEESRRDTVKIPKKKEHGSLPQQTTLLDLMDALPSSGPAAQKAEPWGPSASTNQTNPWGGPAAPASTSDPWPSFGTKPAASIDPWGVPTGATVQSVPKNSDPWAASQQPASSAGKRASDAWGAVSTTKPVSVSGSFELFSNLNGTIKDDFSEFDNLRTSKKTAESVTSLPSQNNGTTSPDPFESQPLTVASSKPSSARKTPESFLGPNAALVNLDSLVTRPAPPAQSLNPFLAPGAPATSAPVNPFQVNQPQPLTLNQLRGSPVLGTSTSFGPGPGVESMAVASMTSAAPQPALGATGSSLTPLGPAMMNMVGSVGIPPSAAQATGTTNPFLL
# UniProt Q15043: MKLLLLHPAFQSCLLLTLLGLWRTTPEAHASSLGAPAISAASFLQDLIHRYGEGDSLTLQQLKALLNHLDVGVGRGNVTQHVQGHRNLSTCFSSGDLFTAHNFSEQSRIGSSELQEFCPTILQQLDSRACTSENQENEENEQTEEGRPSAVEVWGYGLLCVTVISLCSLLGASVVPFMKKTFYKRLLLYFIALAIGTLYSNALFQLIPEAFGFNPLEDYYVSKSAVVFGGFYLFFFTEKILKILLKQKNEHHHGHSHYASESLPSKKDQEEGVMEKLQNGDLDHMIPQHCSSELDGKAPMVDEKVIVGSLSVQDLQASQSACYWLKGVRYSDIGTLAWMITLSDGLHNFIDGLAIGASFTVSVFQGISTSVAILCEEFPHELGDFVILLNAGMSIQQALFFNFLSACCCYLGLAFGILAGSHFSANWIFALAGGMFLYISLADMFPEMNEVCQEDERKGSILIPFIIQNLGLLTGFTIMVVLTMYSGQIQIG
# UniProt Q5HYJ3: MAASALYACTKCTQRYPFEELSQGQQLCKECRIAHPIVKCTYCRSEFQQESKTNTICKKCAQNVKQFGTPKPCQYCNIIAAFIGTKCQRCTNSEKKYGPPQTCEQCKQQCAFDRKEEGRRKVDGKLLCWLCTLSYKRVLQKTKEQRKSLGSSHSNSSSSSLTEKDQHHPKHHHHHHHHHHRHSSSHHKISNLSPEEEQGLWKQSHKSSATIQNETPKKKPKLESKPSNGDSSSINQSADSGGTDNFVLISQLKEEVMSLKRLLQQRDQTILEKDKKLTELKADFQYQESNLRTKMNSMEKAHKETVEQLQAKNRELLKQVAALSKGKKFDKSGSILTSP
# UniProt Q96FZ2: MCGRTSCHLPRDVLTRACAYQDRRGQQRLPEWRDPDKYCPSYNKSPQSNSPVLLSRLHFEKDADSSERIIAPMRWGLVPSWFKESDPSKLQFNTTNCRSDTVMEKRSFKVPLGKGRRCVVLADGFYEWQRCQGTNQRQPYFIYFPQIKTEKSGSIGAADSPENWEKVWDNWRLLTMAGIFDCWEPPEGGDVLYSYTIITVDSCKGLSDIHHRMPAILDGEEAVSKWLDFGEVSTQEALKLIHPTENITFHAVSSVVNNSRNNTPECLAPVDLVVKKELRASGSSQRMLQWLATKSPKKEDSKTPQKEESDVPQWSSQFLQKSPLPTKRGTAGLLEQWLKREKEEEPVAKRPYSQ
# UniProt Q8N4H5: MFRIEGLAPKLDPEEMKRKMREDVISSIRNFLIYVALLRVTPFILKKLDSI
# UniProt Q9UJX4, whole entry: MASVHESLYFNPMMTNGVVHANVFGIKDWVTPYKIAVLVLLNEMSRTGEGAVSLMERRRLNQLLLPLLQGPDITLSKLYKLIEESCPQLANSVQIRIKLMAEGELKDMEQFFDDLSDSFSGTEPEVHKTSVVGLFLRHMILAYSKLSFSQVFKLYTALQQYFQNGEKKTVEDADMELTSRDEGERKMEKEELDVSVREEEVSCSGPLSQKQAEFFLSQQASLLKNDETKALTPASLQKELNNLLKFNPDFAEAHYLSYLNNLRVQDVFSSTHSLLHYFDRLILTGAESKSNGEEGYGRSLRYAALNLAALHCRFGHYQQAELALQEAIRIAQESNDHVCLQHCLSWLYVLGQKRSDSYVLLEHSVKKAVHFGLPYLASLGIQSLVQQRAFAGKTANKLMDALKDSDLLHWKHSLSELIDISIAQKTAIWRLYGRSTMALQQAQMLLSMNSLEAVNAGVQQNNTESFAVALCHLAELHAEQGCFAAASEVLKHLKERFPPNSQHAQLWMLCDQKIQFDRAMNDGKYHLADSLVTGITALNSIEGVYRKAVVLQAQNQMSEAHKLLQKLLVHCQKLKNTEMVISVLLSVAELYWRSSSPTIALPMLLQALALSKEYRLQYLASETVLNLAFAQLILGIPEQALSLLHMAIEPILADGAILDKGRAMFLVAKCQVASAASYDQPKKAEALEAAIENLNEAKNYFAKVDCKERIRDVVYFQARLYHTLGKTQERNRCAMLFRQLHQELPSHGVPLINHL
# UniProt P08133: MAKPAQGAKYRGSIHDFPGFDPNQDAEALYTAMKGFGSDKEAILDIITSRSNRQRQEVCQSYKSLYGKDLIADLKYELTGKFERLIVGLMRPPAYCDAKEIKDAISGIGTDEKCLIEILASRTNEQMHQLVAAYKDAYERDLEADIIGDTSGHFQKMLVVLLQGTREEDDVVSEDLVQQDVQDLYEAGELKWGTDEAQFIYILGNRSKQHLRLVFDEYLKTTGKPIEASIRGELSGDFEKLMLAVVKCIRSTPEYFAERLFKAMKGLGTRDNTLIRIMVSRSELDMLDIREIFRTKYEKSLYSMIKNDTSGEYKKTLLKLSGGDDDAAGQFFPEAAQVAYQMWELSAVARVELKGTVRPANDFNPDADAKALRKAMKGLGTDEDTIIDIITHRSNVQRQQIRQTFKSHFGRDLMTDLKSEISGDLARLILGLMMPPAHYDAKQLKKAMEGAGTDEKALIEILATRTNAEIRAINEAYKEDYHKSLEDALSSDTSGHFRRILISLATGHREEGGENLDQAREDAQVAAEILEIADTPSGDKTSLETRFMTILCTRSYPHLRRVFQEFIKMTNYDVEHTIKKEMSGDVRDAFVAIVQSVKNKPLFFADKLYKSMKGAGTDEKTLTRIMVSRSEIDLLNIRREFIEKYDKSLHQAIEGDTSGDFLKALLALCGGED
# Compound: Nc1ncnc2c1ncn2[C@@H]1O[C@H](COP(=O)(O)OP(=O)(O)NP(=O)(O)O)[C@@H](O)[C@H]1O [adenylyl imidodiphosphate]
# Test: NP40-soluble protein abundance relative to vehicle (solubility fold change) (ratio); higher = more soluble protein in presence of AMP-PNP
# How it was run: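 Each value is a fold change relative to the detergent-processed vehicle, calculated per replicate from vsn-normalised intensities. Jurkat crude lysate received eight concentrations (0.1 to 10 mM) for 10 min at room temperature and 3 min at 37 °C, then was solubilised in 0.8% NP40 with benzonase (60 min, 4 °C). The ultracentrifuged supernatant was TMT-labelled and run by LC-MS/MS in three independent experiments.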
Target,NP40-soluble protein abundance (concentration: 0.1mM),NP40-soluble protein abundance (concentration: 0.5mM)
E7EQR8 and related entries (UniProt Q9GZM5),1.01 ± 0.021,1.01 ± 0.02
E9PK61 and related entries (UniProt O14681),1.03 ± 0.031,0.998 ± 0.043
E9PJ04 and related entries (UniProt Q13435),0.999 ± 0.026,1.03 ± 0.053
F8W9W2 and related entries (UniProt P43250),1.01 ± 0.017,1.06 ± 0.028
F8VV56 and related entries (UniProt P08962),0.957 ± 0.032,0.98 ± 0.04
E9PEN0 and related entries (UniProt Q8WYH8),1.01 ± 0.013,0.9987 ± 0.0027
E7EU96 and related entries (UniProt P68400),1.1 ± 0.077,1.03 ± 0.14
E9PRF4 and related entries (UniProt Q15047),0.969 ± 0.036,0.964 ± 0.051
E9PLK3 and related entries (UniProt P55786),1.03 ± 0.021,0.972 ± 0.09
F8WAN1 and related entries (UniProt Q69YQ0),1.03 ± 0.02,1.03 ± 0.047
F5H527 and related entries (UniProt Q76I76),0.9967 ± 0.0079,0.987 ± 0.033
E9PJF5 and related entries (UniProt Q9HCU9),1.03 ± 0.018,1.03 ± 0.055
E9PKC0 and related entries (UniProt Q6IQ23),1.02 ± 0.028,0.994 ± 0.043
E9PJQ6 and related entries (UniProt Q8IUX1),0.992 ± 0.022,1.06 ± 0.013
F8VTV8 and related entries (UniProt P11802),0.99 ± 0.013,1.01 ± 0.016
E7EQ52 and related entries (UniProt O95271),0.9761 ± 0.0063,0.946 ± 0.034
F5H269 and related entries (UniProt Q9Y485),0.987 ± 0.033,1.01 ± 0.014
E7EQR4 and related entries (UniProt P15311),0.981 ± 0.013,1.03 ± 0.05
E7EQU1 and related entries (UniProt O15347),1.01 ± 0.097,1.18 ± 0.18
F8VU39 and related entries (UniProt Q9UIF9),0.994 ± 0.035,1 ± 0.037
E9PNY1 and related entries (UniProt O95159),1.03 ± 0.061,1.01 ± 0.059
E9PRY8 and related entries (UniProt P29692),1.02 ± 0.034,0.993 ± 0.053
F8WB06 and related entries (UniProt Q99700),0.974 ± 0.029,1.03 ± 0.043
F5GZ78 and related entries (UniProt P49023),0.961 ± 0.014,0.976 ± 0.029

# Retrieved one by one from the entries so far:
Target,NP40-soluble protein abundance (concentration: 0.1mM),NP40-soluble protein abundance (concentration: 0.5mM)
F8WAN1 and related entries (UniProt Q69YQ0),1.03 ± 0.02,1.03 ± 0.047
F8VTV8 and related entries (UniProt P11802),0.99 ± 0.013,1.01 ± 0.016
E9PRF4 and related entries (UniProt Q15047),0.969 ± 0.036,0.964 ± 0.051

# The results go on:

Target,NP40-soluble protein abundance (concentration: 0.1mM),NP40-soluble protein abundance (concentration: 0.5mM)
E9PBC1 and related entries (UniProt O95208),1.01 ± 0.016,0.999 ± 0.0094
E9PC47 and related entries (UniProt P53667),1.009 ± 0.0021,0.979 ± 0.025
F8W1A0 and related entries (UniProt P36873),0.996 ± 0.014,0.962 ± 0.022
F5H136 and related entries (UniProt P17987),1.02 ± 0.041,0.991 ± 0.035
E9PHI4 and related entries (UniProt O94901),1.06 ± 0.037,0.99 ± 0.014
E9PQR9 and related entries (UniProt P57764),1.02 ± 0.061,0.961 ± 0.034
E7EQN5 and related entries (UniProt P98171),1.01 ± 0.023,1.02 ± 0.085
F5H2B9 and related entries (UniProt Q9BZF9),0.986 ± 0.064,0.974 ± 0.016
E5RIS3 and related entries (UniProt Q8TCF1),0.98 ± 0.031,0.957 ± 0.021
F5GXF9 and related entries (UniProt P51825),1.01 ± 0.044,1.01 ± 0.025
G3V325 (UniProt P56134),0.998 ± 0.042,0.9723 ± 0.0015
E9PGT6 and related entries (UniProt Q99627),1.018 ± 0.0053,1.01 ± 0.034
E9PJM3 and related entries (UniProt Q9UK99),0.992 ± 0.015,0.965 ± 0.055
E9PNW4 and related entries (UniProt P13987),1.01 ± 0.051,1.06 ± 0.056
E9PP16 and related entries (UniProt Q8ND30),0.999 ± 0.027,0.993 ± 0.019
E7EQA9 and related entries (UniProt Q92844),0.968 ± 0.034,0.973 ± 0.02
E5RJ40 and related entries (UniProt Q15043),1.011 ± 0.0026,1.002 ± 0.0058
F5GX09 and related entries (UniProt Q5HYJ3),0.9669 ± 0.0048,0.995 ± 0.015
F8VXU5 and related entries (UniProt Q9UBQ0),1.01 ± 0.021,1 ± 0.11
F8WCF6 and related entries (UniProt P59998),1.02 ± 0.024,0.985 ± 0.1
F5GWU8 and related entries (UniProt P61224),0.964 ± 0.013,1.02 ± 0.054
F8VUY8 and related entries (UniProt Q96QD8),0.983 ± 0.023,1.003 ± 0.0043
F6U236 and related entries (UniProt Q9BY11),0.954 ± 0.041,0.964 ± 0.075
E9PSH8 and related entries (UniProt P07766),0.9927 ± 0.0038,1.03 ± 0.029

Target,NP40-soluble protein abundance (concentration: 0.1mM),NP40-soluble protein abundance (concentration: 0.5mM)
F5GX51 and related entries (UniProt Q9Y4F9),0.964 ± 0.015,0.985 ± 0.02
E9PBL8 and related entries (UniProt Q8WTW3),1.103 ± 0.0046,0.9766 ± 0.0057
E5RIW3 and related entries (UniProt O75347),1.027 ± 0.0075,1.05 ± 0.062
G3V3G9 (UniProt P40855),0.9885 ± 0.0094,0.975 ± 0.04
E9PJ68 and related entries (UniProt O75387),0.9985 ± 0.0075,1.02 ± 0.025
F5H0R1 and related entries (UniProt Q9H6E5),0.984 ± 0.027,0.951 ± 0.035
E9PF16 and related entries (UniProt Q96CM8),1.03 ± 0.035,0.989 ± 0.044
E9PLT2 and related entries (UniProt P17480),0.9843 ± 0.0093,1.02 ± 0.06
F5GZ97 and related entries (UniProt Q9Y3C0),1.01 ± 0.041,1.01 ± 0.022
F8W057 and related entries (UniProt Q9GZN1),1.01 ± 0.029,1 ± 0.031
F5H2X7 and related entries (UniProt Q9ULV3),1.02 ± 0.041,1.03 ± 0.072
E7ESS3 and related entries (UniProt Q71RG4),0.977 ± 0.043,0.993 ± 0.033
E7EMP6 and related entries (UniProt Q96FZ2),1.01 ± 0.0055,0.9829 ± 0.0094
F8VRH0 and related entries (UniProt Q15366),0.998 ± 0.053,1.04 ± 0.069
F5GXC5 and related entries (UniProt Q8TB96),1.01 ± 0.011,1.01 ± 0.0092
E9PLE4 and related entries (UniProt Q9BVG9),1.04 ± 0.016,1.04 ± 0.032
F5GXX5 and related entries (UniProt P61803),1.022 ± 0.01,0.944 ± 0.14
E9PRK7 and related entries (UniProt Q8N8R7),0.9714 ± 0.0044,1.02 ± 0.026
F8W8W7 and related entries (UniProt O43493),0.992 ± 0.025,1.02 ± 0.013
E7ETA6 and related entries (UniProt Q15154),1 ± 0.05,1.01 ± 0.066
E9PJB9 and related entries (UniProt Q9Y315),0.982 ± 0.039,1.01 ± 0.066
F8W8G5 and related entries (UniProt P10242),1.02 ± 0.043,0.998 ± 0.031
E9PDP5 and related entries (UniProt Q8IWZ3),1 ± 0.036,0.993 ± 0.035
E7ERD7 and related entries (UniProt Q9UKU0),1.01 ± 0.036,1.01 ± 0.018

Target,NP40-soluble protein abundance (concentration: 0.1mM),NP40-soluble protein abundance (concentration: 0.5mM)
F8W8Z9 and related entries (UniProt Q8N4H5),1.0126 ± 0.0002,1.02 ± 0.049
E9PQY3 and related entries (UniProt P11117),1.01 ± 0.02,0.983 ± 0.037
F5H070 and related entries (UniProt Q9Y4C1),1.02 ± 0.032,0.978 ± 0.031
E7EM83 and related entries (UniProt Q92932),1.0349 ± 3.5e-05,1.01 ± 0.012
F5H0U5 and related entries (UniProt Q9NZD2),1 ± 0.097,0.996 ± 0.075
F5H0F9 and related entries (UniProt Q9UJX4),1.02 ± 0.035,1.02 ± 0.074
F6T1Q0 and related entries (UniProt Q6L8Q7),1 ± 0.057,0.957 ± 0.079
E9PLL6 and related entries (UniProt P46776),1.05 ± 0.046,1 ± 0.041
E9PLL1 and related entries (UniProt O76062),0.99 ± 0.051,0.953 ± 0.058
E9PIK4 and related entries (UniProt O14683),0.973 ± 0.022,0.963 ± 0.019
E5RK69 and related entries (UniProt P08133),1 ± 0.02,1.01 ± 0.039
E9PM51 and related entries (UniProt P32780),0.999 ± 0.018,1 ± 0.016
F5H610 and related entries (UniProt Q9Y478),0.989 ± 0.047,0.971 ± 0.061
F6TB26 and related entries (UniProt Q9Y2W6),0.968 ± 0.027,0.963 ± 0.037
E9PB61 and related entries (UniProt Q86V81),0.967 ± 0.017,0.991 ± 0.056
E9PFK9 and related entries (UniProt Q9UJ41),0.979 ± 0.049,1.01 ± 0.077
E7EPT4 and related entries (UniProt P19404),1.01 ± 0.034,0.973 ± 0.038
E5RJR5 and related entries (UniProt P63208),0.966 ± 0.029,1.05 ± 0.055
E9PJE9 and related entries (UniProt P78410),1 ± 0.034,0.983 ± 0.04
G3V3M6 and related entries (UniProt P27695),0.994 ± 0.098,1.06 ± 0.094
F8WF69 and related entries (UniProt P09496),0.96 ± 0.039,0.9354 ± 0.0072
F8WEA6 and related entries (UniProt O75439),0.99 ± 0.028,1.02 ± 0.026

# Reference: the supplement of paper PMC6411743
